# The other results are listed elsewhere or left out.
# The chains behind the UniProt entries cited, without tags or fusion partners. Where a name states a change or a piece, a line headed by the entry shows the natural chain unless it says otherwise.
# UniProt P86791: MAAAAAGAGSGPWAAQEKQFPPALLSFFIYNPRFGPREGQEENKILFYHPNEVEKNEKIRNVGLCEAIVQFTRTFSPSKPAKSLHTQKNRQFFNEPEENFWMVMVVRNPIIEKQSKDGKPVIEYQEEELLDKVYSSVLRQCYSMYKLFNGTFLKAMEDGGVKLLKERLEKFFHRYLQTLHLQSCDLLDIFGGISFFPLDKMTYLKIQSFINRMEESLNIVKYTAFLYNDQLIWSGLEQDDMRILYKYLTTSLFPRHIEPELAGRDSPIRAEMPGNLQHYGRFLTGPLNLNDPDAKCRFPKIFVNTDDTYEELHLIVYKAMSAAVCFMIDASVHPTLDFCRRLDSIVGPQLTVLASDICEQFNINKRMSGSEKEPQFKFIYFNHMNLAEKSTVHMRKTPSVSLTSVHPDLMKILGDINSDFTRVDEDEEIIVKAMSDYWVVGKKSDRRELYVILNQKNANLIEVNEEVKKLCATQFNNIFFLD
# UniProt Q7Z6B0: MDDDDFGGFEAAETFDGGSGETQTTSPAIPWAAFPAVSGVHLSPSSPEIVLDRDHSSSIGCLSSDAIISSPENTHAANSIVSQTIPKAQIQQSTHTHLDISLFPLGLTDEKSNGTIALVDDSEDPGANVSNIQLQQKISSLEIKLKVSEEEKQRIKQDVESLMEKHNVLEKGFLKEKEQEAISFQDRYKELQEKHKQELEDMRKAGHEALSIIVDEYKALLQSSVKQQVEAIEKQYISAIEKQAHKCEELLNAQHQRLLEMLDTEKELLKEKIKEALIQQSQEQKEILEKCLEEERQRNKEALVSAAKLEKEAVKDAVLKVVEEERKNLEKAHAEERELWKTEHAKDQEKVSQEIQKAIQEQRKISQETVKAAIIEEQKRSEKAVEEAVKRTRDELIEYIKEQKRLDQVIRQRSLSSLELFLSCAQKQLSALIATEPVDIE
# UniProt P08962, whole entry, looked up: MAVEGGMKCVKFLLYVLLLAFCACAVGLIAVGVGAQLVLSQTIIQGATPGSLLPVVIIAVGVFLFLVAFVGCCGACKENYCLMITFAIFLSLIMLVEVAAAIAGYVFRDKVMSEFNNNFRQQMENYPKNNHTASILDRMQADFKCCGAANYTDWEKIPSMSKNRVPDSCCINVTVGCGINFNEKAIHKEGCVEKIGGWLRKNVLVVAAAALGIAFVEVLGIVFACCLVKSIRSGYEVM
# UniProt P19397: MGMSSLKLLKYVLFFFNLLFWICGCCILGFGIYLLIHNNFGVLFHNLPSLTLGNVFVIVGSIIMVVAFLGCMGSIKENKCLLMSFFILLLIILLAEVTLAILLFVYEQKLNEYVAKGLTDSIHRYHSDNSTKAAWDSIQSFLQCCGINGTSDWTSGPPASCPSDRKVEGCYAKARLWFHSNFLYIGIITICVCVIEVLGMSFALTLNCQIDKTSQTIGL
# UniProt P51946: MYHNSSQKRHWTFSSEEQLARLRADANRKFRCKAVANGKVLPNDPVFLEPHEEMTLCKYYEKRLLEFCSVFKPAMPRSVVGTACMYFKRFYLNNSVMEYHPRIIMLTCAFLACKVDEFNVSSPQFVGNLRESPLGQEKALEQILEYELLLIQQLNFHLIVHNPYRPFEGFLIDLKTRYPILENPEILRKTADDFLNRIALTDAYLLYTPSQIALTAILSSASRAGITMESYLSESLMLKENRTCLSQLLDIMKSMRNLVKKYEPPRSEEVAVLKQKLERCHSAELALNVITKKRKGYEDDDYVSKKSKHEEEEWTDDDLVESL
# UniProt P48960: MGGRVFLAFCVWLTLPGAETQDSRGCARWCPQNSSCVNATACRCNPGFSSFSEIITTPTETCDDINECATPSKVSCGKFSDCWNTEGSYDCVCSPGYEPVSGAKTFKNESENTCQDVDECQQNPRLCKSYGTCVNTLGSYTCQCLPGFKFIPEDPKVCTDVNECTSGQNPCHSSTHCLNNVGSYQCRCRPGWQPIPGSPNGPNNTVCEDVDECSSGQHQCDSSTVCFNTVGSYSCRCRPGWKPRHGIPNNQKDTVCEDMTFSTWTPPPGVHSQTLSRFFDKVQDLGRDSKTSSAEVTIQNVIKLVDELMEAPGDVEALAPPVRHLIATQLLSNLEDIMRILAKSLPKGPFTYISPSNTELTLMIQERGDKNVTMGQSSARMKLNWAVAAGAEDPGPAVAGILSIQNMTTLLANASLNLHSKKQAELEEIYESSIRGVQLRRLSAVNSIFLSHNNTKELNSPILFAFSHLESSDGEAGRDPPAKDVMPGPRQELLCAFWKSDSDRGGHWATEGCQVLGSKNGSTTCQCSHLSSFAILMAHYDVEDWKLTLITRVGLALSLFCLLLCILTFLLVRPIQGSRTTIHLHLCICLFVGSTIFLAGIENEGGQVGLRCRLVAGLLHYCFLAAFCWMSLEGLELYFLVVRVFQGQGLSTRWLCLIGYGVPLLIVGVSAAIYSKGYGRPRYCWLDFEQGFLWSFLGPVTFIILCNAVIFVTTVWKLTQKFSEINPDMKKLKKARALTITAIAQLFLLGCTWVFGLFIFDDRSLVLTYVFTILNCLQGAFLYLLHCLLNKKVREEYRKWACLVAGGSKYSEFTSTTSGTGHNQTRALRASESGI
# UniProt P49368: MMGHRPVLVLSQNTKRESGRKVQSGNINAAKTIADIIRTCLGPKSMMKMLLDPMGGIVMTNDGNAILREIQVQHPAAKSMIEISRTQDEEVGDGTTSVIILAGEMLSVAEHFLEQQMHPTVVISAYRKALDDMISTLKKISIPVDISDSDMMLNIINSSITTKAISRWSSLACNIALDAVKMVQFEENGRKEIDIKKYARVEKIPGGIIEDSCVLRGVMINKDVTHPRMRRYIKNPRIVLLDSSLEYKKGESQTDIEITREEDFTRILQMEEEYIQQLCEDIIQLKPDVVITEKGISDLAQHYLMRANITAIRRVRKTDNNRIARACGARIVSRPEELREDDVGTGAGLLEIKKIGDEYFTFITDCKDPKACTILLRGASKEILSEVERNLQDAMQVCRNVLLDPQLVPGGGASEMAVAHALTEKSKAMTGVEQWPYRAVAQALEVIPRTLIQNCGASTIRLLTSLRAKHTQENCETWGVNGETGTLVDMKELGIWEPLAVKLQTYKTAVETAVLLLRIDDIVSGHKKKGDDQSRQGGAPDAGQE
# UniProt Q9BRT8: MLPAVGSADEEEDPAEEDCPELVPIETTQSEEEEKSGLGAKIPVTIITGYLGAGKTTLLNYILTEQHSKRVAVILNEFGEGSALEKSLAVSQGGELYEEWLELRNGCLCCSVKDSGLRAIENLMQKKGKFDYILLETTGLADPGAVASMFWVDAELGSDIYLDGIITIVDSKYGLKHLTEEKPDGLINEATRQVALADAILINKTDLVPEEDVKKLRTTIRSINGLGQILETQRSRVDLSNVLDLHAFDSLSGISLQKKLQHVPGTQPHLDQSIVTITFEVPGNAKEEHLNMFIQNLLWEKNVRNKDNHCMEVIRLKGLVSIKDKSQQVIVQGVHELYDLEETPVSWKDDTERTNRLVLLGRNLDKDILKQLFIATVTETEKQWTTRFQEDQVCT
# UniProt Q8IWD4: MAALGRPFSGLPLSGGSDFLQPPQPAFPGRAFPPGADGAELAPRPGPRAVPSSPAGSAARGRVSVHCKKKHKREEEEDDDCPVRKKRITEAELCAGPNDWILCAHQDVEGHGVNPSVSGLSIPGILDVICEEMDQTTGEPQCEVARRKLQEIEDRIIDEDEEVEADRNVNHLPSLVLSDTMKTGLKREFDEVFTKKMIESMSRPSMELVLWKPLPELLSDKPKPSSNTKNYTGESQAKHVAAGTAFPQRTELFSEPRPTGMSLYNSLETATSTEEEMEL
# UniProt P48643, whole entry, looked up: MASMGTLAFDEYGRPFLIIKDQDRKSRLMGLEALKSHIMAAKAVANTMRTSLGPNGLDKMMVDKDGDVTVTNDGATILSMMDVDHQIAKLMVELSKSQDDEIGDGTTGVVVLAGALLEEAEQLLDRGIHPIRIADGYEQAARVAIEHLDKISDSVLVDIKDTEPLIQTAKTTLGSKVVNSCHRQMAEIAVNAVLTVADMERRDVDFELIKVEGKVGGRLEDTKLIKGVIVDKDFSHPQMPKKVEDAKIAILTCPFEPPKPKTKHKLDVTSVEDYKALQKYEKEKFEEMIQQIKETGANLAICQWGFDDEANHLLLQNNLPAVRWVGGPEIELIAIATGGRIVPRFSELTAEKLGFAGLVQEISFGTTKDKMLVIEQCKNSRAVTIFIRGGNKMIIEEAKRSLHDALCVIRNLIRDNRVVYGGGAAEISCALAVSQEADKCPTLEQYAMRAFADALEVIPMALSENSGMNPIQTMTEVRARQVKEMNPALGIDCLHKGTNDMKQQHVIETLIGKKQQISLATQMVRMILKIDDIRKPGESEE
# UniProt Q86X55: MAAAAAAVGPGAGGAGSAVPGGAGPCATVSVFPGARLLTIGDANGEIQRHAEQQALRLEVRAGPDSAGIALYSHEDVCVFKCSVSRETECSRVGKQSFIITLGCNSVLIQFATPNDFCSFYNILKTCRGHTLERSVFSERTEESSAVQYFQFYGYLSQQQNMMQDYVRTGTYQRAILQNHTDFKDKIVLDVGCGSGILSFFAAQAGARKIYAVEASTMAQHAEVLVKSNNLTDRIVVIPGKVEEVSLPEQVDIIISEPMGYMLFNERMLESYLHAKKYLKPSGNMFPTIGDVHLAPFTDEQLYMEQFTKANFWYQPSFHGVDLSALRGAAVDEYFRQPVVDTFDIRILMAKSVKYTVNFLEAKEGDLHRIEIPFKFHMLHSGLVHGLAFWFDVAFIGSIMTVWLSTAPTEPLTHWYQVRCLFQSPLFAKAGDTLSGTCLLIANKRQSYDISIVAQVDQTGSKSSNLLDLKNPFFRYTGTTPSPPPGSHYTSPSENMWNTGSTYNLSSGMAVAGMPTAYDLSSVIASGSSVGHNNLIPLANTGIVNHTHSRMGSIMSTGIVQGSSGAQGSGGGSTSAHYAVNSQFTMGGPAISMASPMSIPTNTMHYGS
# UniProt Q567U6, whole entry, looked up: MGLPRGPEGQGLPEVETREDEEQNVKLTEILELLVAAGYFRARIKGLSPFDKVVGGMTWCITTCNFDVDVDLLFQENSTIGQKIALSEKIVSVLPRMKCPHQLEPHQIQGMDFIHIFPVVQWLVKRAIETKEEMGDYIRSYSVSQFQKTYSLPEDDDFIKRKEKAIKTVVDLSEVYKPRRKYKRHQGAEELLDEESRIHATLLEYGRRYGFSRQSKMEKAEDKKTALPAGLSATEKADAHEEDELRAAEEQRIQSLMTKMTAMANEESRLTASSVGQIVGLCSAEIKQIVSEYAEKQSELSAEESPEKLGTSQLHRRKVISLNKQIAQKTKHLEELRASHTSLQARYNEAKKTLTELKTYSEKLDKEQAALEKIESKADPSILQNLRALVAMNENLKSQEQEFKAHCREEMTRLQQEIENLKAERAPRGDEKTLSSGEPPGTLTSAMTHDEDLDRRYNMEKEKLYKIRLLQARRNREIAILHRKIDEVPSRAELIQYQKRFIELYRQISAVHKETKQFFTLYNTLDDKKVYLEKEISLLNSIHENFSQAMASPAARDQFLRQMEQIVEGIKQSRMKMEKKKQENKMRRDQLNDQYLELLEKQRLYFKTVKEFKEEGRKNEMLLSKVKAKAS
# UniProt Q9BV29: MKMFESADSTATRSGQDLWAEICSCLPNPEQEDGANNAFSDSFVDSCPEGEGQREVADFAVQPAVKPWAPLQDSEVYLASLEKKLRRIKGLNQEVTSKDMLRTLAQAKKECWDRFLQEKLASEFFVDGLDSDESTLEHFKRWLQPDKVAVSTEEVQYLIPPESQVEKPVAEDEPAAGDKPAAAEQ
# UniProt O95067, whole entry, looked up: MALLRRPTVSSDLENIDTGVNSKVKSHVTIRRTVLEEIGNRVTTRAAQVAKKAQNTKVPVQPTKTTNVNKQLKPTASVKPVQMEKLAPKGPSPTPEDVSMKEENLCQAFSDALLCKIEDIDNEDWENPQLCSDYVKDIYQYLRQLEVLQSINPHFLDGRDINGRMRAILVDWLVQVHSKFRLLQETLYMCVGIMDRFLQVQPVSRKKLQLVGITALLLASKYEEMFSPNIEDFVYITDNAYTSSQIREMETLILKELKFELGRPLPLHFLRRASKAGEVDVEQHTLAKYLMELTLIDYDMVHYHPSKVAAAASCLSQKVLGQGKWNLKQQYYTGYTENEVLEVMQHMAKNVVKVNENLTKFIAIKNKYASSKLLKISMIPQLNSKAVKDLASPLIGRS
# UniProt Q96NT0: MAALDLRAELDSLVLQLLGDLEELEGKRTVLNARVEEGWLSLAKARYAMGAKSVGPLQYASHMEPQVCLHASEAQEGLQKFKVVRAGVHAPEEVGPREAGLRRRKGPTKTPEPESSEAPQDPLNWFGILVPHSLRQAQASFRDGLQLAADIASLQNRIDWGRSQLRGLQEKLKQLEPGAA
# UniProt P14209: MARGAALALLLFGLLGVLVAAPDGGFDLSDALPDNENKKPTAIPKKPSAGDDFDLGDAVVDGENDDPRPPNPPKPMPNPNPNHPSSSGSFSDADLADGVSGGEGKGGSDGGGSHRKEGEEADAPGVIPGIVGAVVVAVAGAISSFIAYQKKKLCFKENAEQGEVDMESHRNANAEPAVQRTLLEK
# Assays:
# Test in all cases: log2 fold change, soluble protein after heating vs DMSO (PISA); higher = thermal stabilisation; K562 cells, 10 uM, 30 min; active = over 0.2 and 3.5 SD of the protein, either way, in both replicates (recomputed)
# [1] = compound: NC(=O)Nc1cc(-c2cccc(F)c2)sc1C(=O)N[C@H]1CCCNC1
# Outline: (§1)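 K562 cells at 2×10^6 cells/mL were treated with 10 μM compound for 30 min. Aliquots were heated for 3 min across 48°C-58°C, pooled, and extracted in PBS with 0.5% NP-40 at 4°C; soluble protein was the supernatant after 21,000xg for 90 min. Soluble protein was quantified by TMTpro 16plex LC-MS/MS with channel sums equalised, and reported as log2 fold change in thermal stability against DMSO controls, with values from duplicates.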
# [2] = compound: NC(=O)c1cnc(N[C@@H]2CCCC[C@@H]2N)nc1Nc1cccc(-n2nccn2)c1
# Outline: as §1
# [3] = compound: NC1(c2ccc(-c3nc4ccn5c(=O)[nH]nc5c4cc3-c3ccccc3)cc2)CCC1
# Outline: as §1
# [4] = compound: NCC(=O)Nc1ccc(-n2nc(C(F)(F)F)cc2-c2ccc3c(ccc4ccccc43)c2)cc1
# Outline: as §1
# entinostat = compound: Nc1ccccc1NC(=O)c1ccc(CNC(=O)OCc2cccnc2)cc1 [entinostat]
# Outline: as §1
# vorinostat = compound: O=C(CCCCCCC(=O)Nc1ccccc1)NO [vorinostat]
# Outline: as §1
# citarinostat = compound: O=C(CCCCCCNC(=O)c1cnc(N(c2ccccc2)c2ccccc2Cl)nc1)NO [citarinostat]
# Outline: as §1
# silmitasertib = compound: O=C(O)c1ccc2c(c1)nc(Nc1cccc(Cl)c1)c1ccncc12 [silmitasertib]
# Outline: as §1
# [5] = compound: O=C1NC(=O)C(c2cnc3ccccn23)=C1c1cn2c3c(cc(F)cc13)CN(C(=O)N1CCCCC1)CC2
# Outline: as §1
# [6] = compound: c1cc(OCCN2CCCCC2)cc(-c2n[nH]c3ccc(-c4nnc[nH]4)cc23)c1
# Outline: as §1
# entospletinib = compound: c1cn2cc(-c3ccc4cn[nH]c4c3)nc(Nc3ccc(N4CCOCC4)cc3)c2n1 [entospletinib]
# Outline: as §1
Target,log2 fold change [1],log2 fold change [2],log2 fold change [3],log2 fold change [4],log2 fold change (entinostat),log2 fold change (vorinostat),log2 fold change (citarinostat),log2 fold change (silmitasertib),log2 fold change [5],log2 fold change [6],log2 fold change (entospletinib)
CBR1 (UniProt P16152),inactive: -0.002,inactive: 0.025,inactive: -0.029,inactive: 0.037,inactive: -0.008,inactive: -0.041,inactive: 0.033,inactive: -0.011,inactive: -0.039,active: 0.235,
CBFA2T3 (UniProt O75081),inactive: -0.02,inactive: 0.078,inactive: -0.036,inactive: -0.201,inactive: 0.019,inactive: 0.019,inactive: 0.013,inactive: 0.073,inactive: 0.058,inactive: -0.117,inactive: -0.062
CCZ1 (UniProt P86791),inactive: 0.036,inactive: -0.072,active: -0.33,inactive: -0.077,inactive: 0.006,inactive: 0.013,inactive: -0.011,inactive: 0.039,inactive: -0.01,inactive: -0.033,
CBX5 (UniProt P45973),inactive: -0.066,inactive: -0.027,inactive: -0.025,inactive: -0.106,inactive: 0.025,inactive: 0.113,inactive: 0.041,inactive: -0.016,inactive: -0.073,inactive: -0.021,
CCDC91 (UniProt Q7Z6B0),inactive: -0.03,inactive: -0.019,inactive: -0.029,inactive: -0.052,inactive: 0,inactive: 0.014,inactive: 0.003,inactive: 0.009,inactive: -0.085,inactive: 0.008,inactive: -0.005
CD63 (UniProt P08962),inactive: -0.026,inactive: -0.001,inactive: -0.05,inactive: -0.035,inactive: -0.004,inactive: -0.066,inactive: 0.026,inactive: 0.02,inactive: 0.051,inactive: -0.063,
CD53 (UniProt P19397),inactive: -0.15,inactive: 0.196,inactive: 0.133,inactive: 0.014,inactive: -0.044,inactive: -0.219,inactive: 0.013,inactive: -0.046,inactive: -0.037,inactive: -0.12,
CASP3 (UniProt P42574),inactive: 0.051,inactive: 0.053,inactive: 0.075,inactive: 0.043,inactive: -0.029,inactive: 0,inactive: -0.043,inactive: -0.057,inactive: 0.018,inactive: -0.051,
CCNH (UniProt P51946),inactive: -0.043,inactive: -0.009,inactive: 0.024,inactive: -0.02,inactive: -0.006,inactive: -0.028,inactive: 0.015,inactive: 0.02,inactive: -0.083,inactive: -0.027,
CD97 (UniProt P48960),inactive: -0.056,inactive: 0.082,inactive: 0.017,inactive: 0.051,inactive: -0.055,inactive: -0.079,inactive: 0.065,inactive: 0.015,inactive: -0.009,inactive: -0.103,inactive: 0.032
CD46 isoform 2 (UniProt P15529),inactive: -0.063,inactive: 0.056,inactive: 0.05,inactive: 0.059,inactive: -0.029,inactive: -0.018,inactive: 0.054,inactive: -0.084,inactive: -0.075,inactive: -0.069,inactive: -0.053
CCT3 (UniProt P49368),inactive: -0.027,inactive: 0.012,inactive: 0.007,inactive: 0.04,inactive: -0.017,inactive: 0,inactive: -0.013,inactive: -0.026,inactive: -0.068,inactive: -0.01,inactive: -0.004
CBWD1 (UniProt Q9BRT8),inactive: -0.042,inactive: -0.042,inactive: -0.109,inactive: 0.107,inactive: 0.007,inactive: 0.138,inactive: 0.097,inactive: 0.183,inactive: 0.03,inactive: -0.064,inactive: -0.213
CC2D1B isoform 2 (UniProt Q5T0F9),inactive: -0.045,inactive: 0.004,inactive: -0.019,inactive: -0.023,inactive: -0.026,inactive: 0.003,inactive: -0.025,inactive: -0.003,inactive: -0.196,inactive: -0.043,inactive: 0.004
CCDC47 (UniProt Q96A33),inactive: -0.024,inactive: -0.049,inactive: -0.081,inactive: -0.088,inactive: -0.014,inactive: 0.023,inactive: -0.019,inactive: -0.006,inactive: -0.084,inactive: 0.021,inactive: -0.031
CCDC117 (UniProt Q8IWD4),inactive: -0.123,inactive: -0.265,inactive: -0.035,inactive: -0.118,inactive: -0.187,inactive: -0.02,inactive: -0.02,inactive: -0.001,inactive: 0.011,inactive: -0.107,inactive: 0.055
CCT5 (UniProt P48643),inactive: 0.029,inactive: 0.014,inactive: 0.006,inactive: 0.047,inactive: 0.01,inactive: 0.038,inactive: 0.021,inactive: -0.025,inactive: 0.056,inactive: -0.036,inactive: -0.08
CARM1 (UniProt Q86X55),inactive: -0.008,inactive: 0.01,inactive: -0.03,inactive: 0.002,inactive: -0.009,inactive: 0.009,inactive: 0.041,inactive: -0.007,inactive: -0.04,inactive: -0.019,inactive: -0.008
CD58 (UniProt P19256),inactive: -0.093,inactive: 0.035,inactive: 0.106,inactive: 0.046,inactive: -0.053,inactive: 0.012,inactive: 0.073,inactive: -0.046,inactive: 0.013,inactive: -0.079,inactive: 0.01
CD320 (UniProt Q9NPF0),inactive: -0.005,inactive: -0.02,inactive: -0.069,inactive: -0.038,inactive: -0.015,inactive: -0.025,inactive: 0.032,inactive: 0.034,inactive: 0.012,inactive: -0.062,inactive: 0.041
CCDC93 (UniProt Q567U6),inactive: 0.013,inactive: 0.01,inactive: -0.028,inactive: -0.021,inactive: -0.012,inactive: 0.019,inactive: 0.038,inactive: 0.123,inactive: -0.051,inactive: 0.051,inactive: 0.059
CCDC32 isoform 2 (UniProt Q9BV29),inactive: -0.038,inactive: -0.114,inactive: 0.04,inactive: -0.04,inactive: 0.024,inactive: -0.01,inactive: 0.054,inactive: 0.029,inactive: -0.077,inactive: -0.103,inactive: -0.025
CCDC137 (UniProt Q6PK04),inactive: 0.123,inactive: 0.265,inactive: 0.327,inactive: 0.143,inactive: -0.199,inactive: -0.085,inactive: -0.225,inactive: 0.277,inactive: -0.008,inactive: -0.045,inactive: 0.027
CAVIN2 (UniProt O95810),inactive: 0.048,inactive: -0.014,inactive: -0.002,inactive: 0.051,inactive: 0.003,inactive: 0.009,inactive: 0,inactive: 0.023,inactive: 0.103,inactive: -0.17,inactive: 0.07
CCNB2 (UniProt O95067),inactive: -0.035,inactive: -0.095,inactive: -0.015,inactive: -0.005,inactive: 0.041,inactive: 0.027,inactive: -0.022,inactive: 0.008,inactive: -0.164,inactive: 0.308,inactive: 0.027
CBX3 (UniProt Q13185),inactive: -0.059,inactive: -0.063,inactive: 0.046,inactive: -0.06,inactive: 0.096,inactive: -0.047,inactive: -0.051,inactive: -0.094,inactive: 0.042,inactive: 0.046,inactive: 0.092
CCDC115 (UniProt Q96NT0),inactive: 0.035,inactive: 0.089,inactive: -0.007,inactive: -0.004,inactive: 0.01,inactive: -0.002,inactive: 0.07,inactive: -0.035,inactive: -0.047,inactive: 0.005,inactive: -0.01
CD99 (UniProt P14209),inactive: -0.075,inactive: 0.299,inactive: 0.062,inactive: 0.182,inactive: -0.021,inactive: -0.007,inactive: 0.018,inactive: -0.062,inactive: -0.033,inactive: 0.077,inactive: 0.066

# Reference: the supplement of paper PMC10849652
